Measurements as given in patent publication US5804576A, “Derivatives of 5-androsten-17-ones and 5-androstan-17-ones” (Research Corporation Technologies, Inc., priority 1986, dated 1998).
“Also recorded” adds a separate entry of the source.

How the values were obtained:
[1] = system: (3H) DMBA binding to skin DNA; test: [3H]DMBA binding to mouse skin DNA, topical steroid; assay type: in vivo, mouse (A/J); details: for average food consumed: ad libitum fed plus steroid, two weeks; for mean weight following two weeks of feeding: ad libitum fed, treated, n=6
From the text: Skin tumors can be induced in the mouse either by weekly application of a carcinogen such as […] (DMBA), or alternatively,by a single sub-threshold dose of the carcinogen followed by twice weekly applications of the tumor promoter tetradecanoylphorbol-13-acetate (TPA). In order to exert its carcinogenic effect, DMBA must be metabolized by an NADPH-dependent mixed-function oxidase to chemically reactive intermediates which bind covalently to DNA and produce mutations leading to malignant transformation. […] This effect of DHEA very probably is a result of the inhibition of G6PDH and lowering of the intracellular pool of NADPH, which is a co-factor for the mixed-function oxidase activation of DMBA.
Binding of [^3 H]DMBA to mouse skin DNA was determined as described in Pashko, L. L., and Schwartz, A. G. (1983), Effect of food restriction, dehydroepiandrosterone, or obesity on the binding of ^3 H-7,12-dimethylbenz(a)-anthracene to mouse skin DNA, J. Gerontol., 38, 8-12. Values are mean±SD for 3 individual determinations, with pooled tissue from 2 mice used for each determination. DHEA or testosterone (400 ug in 0.2 ml acetone) was applied to the skin one hour before [^3 H]DMBA. The mean weight of the food restricted mice was 18.5±1.0 gm, n=6, of the ad libitum fed, 27.4±1.0 gm, n=6, of the ad libitum fed treated with DHEA, 28.2±0.9 gm, n=6, and of the ad libitum fed treated with testosterone, 28.3±0.9 gm, n=6, following two weeks of feeding. The average food consumed was, in gm/mouse/day, 2.2, 3.8, 3.8 and 4.0 for the food restricted, ad libitum fed, ad libitum fed plus DHEA, and ad libitum fed plus testosterone groups, respectively.

[2] = Anti-obesity test (body weight, food consumption); assay type: in vivo, mouse (male A/J); details: DHEA treated mice, first week and thereafter
Procedure: Male A/J mice (5 weeks old) were obtained from the Jackson Laboratory and were housed in polycarbonate cages (5 mice/cage) in animal quarters maintained at 24°±1° C. with 12 hours of light and 12 hours of darkness each day. One week after arrival, the mice were placed on a chow diet containing varying concentrations of DHEA or other steroid. Animals were weighed weekly; food consumption was determined weekly by subtracting the amount of food remaining in the cage from the amount added.
Male A/J (5 weeks old) were obtained from the Jackson Laboratory and were housed in polycarbonate cages (5 mice/cage) in animal quarters maintained at 24°±1° C. with 12 hours of light and 12 hours of darkness each day. One week after arrival, the mice were placed on a diet containing either DHEA, 19, or without steroid. Animals were weighed weekly. The concentration of DHEA or 19 used in the food was 0.54%.
Male A/J mice (5 weeks old) were obtained from the Jackson Laboratory and were housed in polycarbonate cages (5 mice/cage) in animal quarters maintained at 24°±1° C. with 12 hours of light and 12 hours of darkness each day. One week after arrival, the mice were placed on a show diet containing DHEA, 16, or 21 at 0.36%. Animals were weighed weekly.

Row | SMILES | average food consumed [1] [gm/mouse/day] | mean weight following two weeks of feeding [1] [gm] | food consumption (in words) [2]
1 | C[C@]12CC[C@H]3[C@@H](CCC4=CC(=O)CC[C@@]43C)[C@@H]1CC[C@@H]2O [testosterone] | 4.0 | 28.3±0.9 | 
2 | C[C@]12CC[C@H](O)CC1=CC[C@@H]1[C@@H]2CC[C@]2(C)C(=O)CC[C@@H]12 [DHEA, 3β-Hydroxy-5-androst-en-17-one, reference compound] | 3.8 | 28.2±0.9 | initial depression in food consumption in the DHEA treated mice in the first week; also recorded: equal to or slightly greater than the control mice
